Measurements published in patent publication US20100285597A1, “DETECTION OF FRAGMENTS OF NECTIN-1 FOR THE DIAGNOSIS OF ALZHEIMER'S DISEASE” (UNIVERSITY OF ROCHESTER, priority 2007, published 2010).
Changes are numbered by the printed parent chain. Names may count otherwise. These are yes or no findings as the source states them, for the method shown. Binding seen in cells or lysates may run through a third protein. Some entries that bind do so weakly or less than the wild type.

The chains behind the UniProt entries cited, without tags or fusion partners. Residues count along the entry.
UniProt P56819, residues 46-501: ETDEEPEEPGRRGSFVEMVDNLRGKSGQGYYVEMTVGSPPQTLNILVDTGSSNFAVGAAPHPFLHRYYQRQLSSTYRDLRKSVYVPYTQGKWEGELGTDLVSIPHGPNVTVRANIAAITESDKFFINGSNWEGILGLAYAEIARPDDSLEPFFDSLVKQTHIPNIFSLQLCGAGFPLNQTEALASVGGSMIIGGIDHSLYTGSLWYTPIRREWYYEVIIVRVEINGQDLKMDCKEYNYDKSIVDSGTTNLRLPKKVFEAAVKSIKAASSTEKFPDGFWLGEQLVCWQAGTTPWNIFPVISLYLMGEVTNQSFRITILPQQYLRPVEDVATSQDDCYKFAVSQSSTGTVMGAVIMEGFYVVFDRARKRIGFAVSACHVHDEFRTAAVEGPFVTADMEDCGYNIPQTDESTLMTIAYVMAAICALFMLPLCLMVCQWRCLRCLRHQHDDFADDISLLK
UniProt P56817, residues 46-501: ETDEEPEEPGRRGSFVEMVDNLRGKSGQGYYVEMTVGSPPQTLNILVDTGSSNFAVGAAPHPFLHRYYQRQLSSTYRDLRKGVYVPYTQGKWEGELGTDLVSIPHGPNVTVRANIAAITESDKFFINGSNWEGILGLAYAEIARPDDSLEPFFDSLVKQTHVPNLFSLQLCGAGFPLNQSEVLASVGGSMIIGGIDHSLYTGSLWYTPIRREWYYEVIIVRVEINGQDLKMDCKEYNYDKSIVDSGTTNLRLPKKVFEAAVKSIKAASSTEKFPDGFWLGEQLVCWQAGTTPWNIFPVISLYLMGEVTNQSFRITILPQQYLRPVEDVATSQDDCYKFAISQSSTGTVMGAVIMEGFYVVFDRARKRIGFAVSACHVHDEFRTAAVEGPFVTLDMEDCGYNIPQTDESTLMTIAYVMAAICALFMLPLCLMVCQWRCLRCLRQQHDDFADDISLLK

B1: nectin-1 in rat brain (receptor)
chain: QVVQVNDSMYGFIGTDVILHCSFANPLPTVKITQVTWQKASNGSKQNMAIYNPTMGVSVLPPYEKRVEFLRPSFIDGTIRLSHLELEDEGMYICEFATFPTGNRESQLNLTVMAKPTNWIEGTQAVLRARKGQDDKVLVATCTSANGKPPSVVSWETRLKGEAEYQEIRNPNGTVTVISRYRLVPSREAHRQSLACIVNYHLDRFRESLTLNVQYEPEVTIEGFDGNWYLQRTDVKLTCKADANPPATEYHWTTLNGSLPKGVEAQNRTLFFRGPINYSLAGTYICEATNPIGTRSGQVEVNITEFPYTPTPEHGRRAGQMPTAIIGGVAGSVLLVLIVVGGIIVALRRRRHTFKGDYSTKKHVYGNGYSKAGIPQHHPPMAQNLQYPDDSDDEKKAGPLGGSSYEEEEEEEGGGGGERKVGGPHPKYDEDAKRPYFTVDEAEARQDGYGDRTLGYQYDPEQLDLAENMVSQNDGSFISKKEWYV
B2: T310A point mutant of nectin-1 (receptor)
chain: QVVQVNDSMYGFIGTDVVLHCSFANPLPSVKITQVTWQKSTNGSKQNVAIYNPSMGVSVLAPYRERVEFLRPSFTDGTIRLSRLELEDEGVYICEFATFPTGNRESQLNLTVMAKPTNWIEGTQAVLRAKKGQDDKVLVATCTSANGKPPSVVSWETRLKGEAEYQEIRNPNGTVTVISRYRLVPSREAHQQSLACIVNYHMDRFKESLTLNVQYEPEVTIEGFDGNWYLQRMDVKLTCKADANPPATEYHWTTLNGSLPKGVEAQNRTLFFKGPINYSLAGAYICEATNPIGTRSGQVEVNITEFPYTPSPPEHGRRAGPVPTAIIGGVAGSILLVLIVVGGIVVALRRRRHTFKGDYSTKKHVYGNGYSKAGIPQHHPPMAQNLQYPDDSDDEKKAGPLGGSSYEEEEEEEEGGGGGERKVGGPHPKYDEDAKRPYFTVDEAEARQDGYGDRTLGYQYDPEQLDLAENMVSQNDGSFISKKEWYV
B3: Y311A point mutant of nectin-1 (receptor)
chain: B2 chain with A283T, Y284A
B4: S323A point mutant of nectin-1 (receptor)
chain: B2 chain with A283T, S296A
B5: wild type nectin-1 (receptor)
chain: B2 chain with A283T

Experiments:
BACE1 in rat brain (rat) [1] = biological target: BACE1 in rat brain (rat) (UniProt P56819); assay: summary of the rat brain co-immunoprecipitation
BACE1 in rat brain (rat) [2] = biological target: BACE1 in rat brain (rat) (UniProt P56819); assay: co-immunoprecipitation from rat brain detergent lysate with BACE1 specific antibody, anti-nectin-1 Western blot
BACE1 [3] = biological target: BACE1 (UniProt P56817); assay: summary of the co-immunoprecipitation of Example 10
BACE1 [4] = biological target: BACE1 (UniProt P56817); assay: co-immunoprecipitation from HEK 293 lysates with C-terminal specific nectin-1 antibody, anti-BACE1 Western blot
BACE1 [5] = biological target: BACE1 (UniProt P56817); assay: co-immunoprecipitation from HEK 293 lysates with nectin-1 cytoplasmic specific antibody, anti-BACE1 Western blot

Binder | binding (BACE1 in rat brain (rat) [1]) | binding (BACE1 in rat brain (rat) [2]) | binding (BACE1 [3]) | binding (BACE1 [4]) | binding (BACE1 [5])
B1 | binds | binds |  |  | 
B2 |  |  | binds | binds | 
B3 |  |  | binds | binds | 
B4 |  |  | binds | binds | 
B5 |  |  |  | binds | binds
